The test system of the assay is HEK293A TEAD-LUC reporter. In words: TEAD-luciferase reporter activity (YAP activation), robust Z score vs plate; higher = stronger YAP/TEAD activation. The note with it: 24 h. On the technique in general: In a reporter assay the amount or activity of a reporter protein is the signal.

The values below come from the supplement of paper PMC10735217.

Molecules are shown by their SMILES. Where a name gives a salt, the structure may show the parent alone. The list shows a part of the results. Single values are uncertain here, since repeats match poorly.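 The human kidney-derived cells carry a stably integrated construct of eight TEAD-binding elements driving luciferase, read by luminescence in a drug-repurposing library screen. A compound counts as a hit when its signal is more than five robust Z scores above the plate mean.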

`CNC(C(=O)O)C(O)c1ccc(O)c(O)c1` (stereo not drawn): the TEAD-luciferase reporter activity is inactive: -0.00875 (compound concentration: 200 nM), inactive: -2.35 (compound concentration: 2 uM) and inactive: -0.112 (compound concentration: 10 uM).
As for `CC(C)(CO)c1cc2cc(NC(=O)C3(c4ccc5c(c4)OC(F)(F)O5)CC3)c(F)cc2n1C[C@@H](O)CO`, the TEAD-luciferase reporter activity was inactive: 0.825 (compound concentration: 200 nM), inactive: -1.24 (compound concentration: 2 uM) and active: 6.64 (compound concentration: 10 uM).
On to `CC1CCC(C(C)C)C(OC(=O)c2cccnc2)C1` (stereo not drawn), for which the TEAD-luciferase reporter activity is inactive: 1.86 (compound concentration: 200 nM), inactive: -0.994 (compound concentration: 2 uM) and inactive: 0.0306 (compound concentration: 10 uM).
Regarding `O=C1c2ccccc2OCN1CCO`, the TEAD-luciferase reporter activity reads like this: (compound concentration: 200 nM) inactive: 0.206; (compound concentration: 2 uM) inactive: -0.614; (compound concentration: 10 uM) inactive: 0.969.
As to `Clc1ccc(OCC2=NCCc3ccccc32)cc1`, the TEAD-luciferase reporter activity runs as follows: (compound concentration: 200 nM) inactive: -0.448; (compound concentration: 2 uM) inactive: 0.901; (compound concentration: 10 uM) inactive: 0.803.
In the case of `c1cnn(-c2cc(-n3cccn3)ncn2)c1`, the TEAD-luciferase reporter activity is inactive: -1.27 (compound concentration: 200 nM), inactive: -0.768 (compound concentration: 2 uM) and inactive: 0.137 (compound concentration: 10 uM).
Turning to `CCN(CC)CCNC(=O)c1ccc(NC(=O)COc2cc(C)ccc2C)cc1OC`, the TEAD-luciferase reporter activity (compound concentration: 200 nM) is inactive: -0.0382, the TEAD-luciferase reporter activity (compound concentration: 2 uM) was inactive: -0.55 and the TEAD-luciferase reporter activity (compound concentration: 10 uM) was inactive: -0.731.
For the compound `CCNC(=O)/C=C/c1cccc(Br)c1` [Cinromide], the TEAD-luciferase reporter activity (compound concentration: 2 uM) is inactive: 0.809.
As to `CCNC(=O)/C=C/c1cccc(Br)c1`, the TEAD-luciferase reporter activity was inactive: 0.353 (compound concentration: 200 nM) and inactive: 0.119 (compound concentration: 10 uM).
`Cc1cc(=O)c(N)nn1-c1cccc(C(F)(F)F)c1`: the TEAD-luciferase reporter activity by setting is: (compound concentration: 200 nM) inactive: -0.51; (compound concentration: 2 uM) inactive: 0.0512; (compound concentration: 10 uM) inactive: 0.604.
With `CN1CCN(C2=Cc3ccccc3/C(=C/C#N)c3ccc(Cl)cc32)CC1`, the TEAD-luciferase reporter activity runs as follows: (compound concentration: 200 nM) inactive: 0.449; (compound concentration: 2 uM) inactive: 2.02; (compound concentration: 10 uM) inactive: 3.2.
As for `CCCOc1ccc(S(=O)(=O)N2CCCN(CCO)CC2)cc1-c1nc2c([nH]1)c1nncn1c(=O)n2CCC`, the TEAD-luciferase reporter activity is, setting by setting: (compound concentration: 200 nM) inactive: -1.24; (compound concentration: 2 uM) inactive: 0.316; (compound concentration: 10 uM) inactive: -0.114.
For `CCCCCCCCCCCCCCNC(=O)N[C@H](CC(=O)[O-])C[N+](C)(C)C`, the TEAD-luciferase reporter activity is, setting by setting: (compound concentration: 200 nM) inactive: -2.43; (compound concentration: 2 uM) inactive: 0.346; (compound concentration: 10 uM) inactive: -0.289.
For `Cc1ccc(S(=O)(=O)N(Cl)Cl)cc1` the same measures were inactive: 0.31, inactive: -1.53 and inactive: 0.186.
With `O=[N+]([O-])c1ccc(-c2nc3ccccc3[nH]2)o1`, the TEAD-luciferase reporter activity is inactive: 0.319 (compound concentration: 200 nM), inactive: 0.0133 (compound concentration: 2 uM) and inactive: 2.71 (compound concentration: 10 uM).
For `O=C(NCc1ccccn1)Nc1nnc(-c2ccco2)o1`, the TEAD-luciferase reporter activity (compound concentration: 200 nM) is inactive: -0.859, the TEAD-luciferase reporter activity (compound concentration: 2 uM) is inactive: -0.584 and the TEAD-luciferase reporter activity (compound concentration: 10 uM) was inactive: 1.17.
Take `Cc1cnc(NCCCN(C)C)c2c1[nH]c1ccc3cc(O)ccc3c12`: the TEAD-luciferase reporter activity was inactive: -0.119 (compound concentration: 200 nM), inactive: 1.74 (compound concentration: 2 uM) and inactive: -1.23 (compound concentration: 10 uM).
For `CN(C)Cc1ccc(CSCCN/C(=C/[N+](=O)[O-])NCc2ccc3c(c2)OCO3)o1` the same measures were inactive: 0.778, inactive: -0.859 and inactive: 1.22.
Regarding `CS(=O)(=O)Nc1ccc(C(O)CN2CCN(c3ccncc3)CC2)cc1` (stereo not drawn), the TEAD-luciferase reporter activity by setting is: (compound concentration: 200 nM) inactive: 0.921; (compound concentration: 2 uM) inactive: -0.943; (compound concentration: 10 uM) inactive: -1.08.
For `CCC/N=C1\S/C(=C/c2ccc(OCC(O)CO)c(Cl)c2)C(=O)N1c1ccccc1C` (stereo not drawn) [ponesimod] the same measures were inactive: 1.05, inactive: -0.864 and inactive: 0.437.
Turning to `CC(NCCCCc1ccccc1)C(O)c1ccc2c(c1)CCS2` (stereo not drawn) [tibalosin], the TEAD-luciferase reporter activity is inactive: -0.635 (compound concentration: 200 nM), inactive: -0.777 (compound concentration: 2 uM) and inactive: 1.7 (compound concentration: 10 uM).
In the case of `C[C@H](Oc1ccc(S(C)(=O)=O)cc1C(=O)N1CCN(c2ncc(C(F)(F)F)cc2F)CC1)C(F)(F)F` [bitopertin], the TEAD-luciferase reporter activity runs as follows: (compound concentration: 200 nM) inactive: -1.13; (compound concentration: 2 uM) inactive: 0.355; (compound concentration: 10 uM) inactive: -1.13.
In the case of `CC(C)(C)C(=O)NC1CCCN(c2nc3ncccc3o2)C1` (stereo not drawn), the TEAD-luciferase reporter activity was inactive: 1.36 (compound concentration: 200 nM) and inactive: -0.364 (compound concentration: 10 uM).
For `CCCC(=O)C1=C(Nc2ccccc2)CC(C)(C)C(C(=O)OC)C1=O` (stereo not drawn), the TEAD-luciferase reporter activity (compound concentration: 200 nM) is inactive: 0.996, the TEAD-luciferase reporter activity (compound concentration: 2 uM) is inactive: -1.87 and the TEAD-luciferase reporter activity (compound concentration: 10 uM) is inactive: 0.0507.
Consider `COc1cc(NCCCCCCCN)c2ncccc2c1`, for which the TEAD-luciferase reporter activity is, setting by setting: (compound concentration: 200 nM) inactive: 0.218; (compound concentration: 2 uM) inactive: -2.49; (compound concentration: 10 uM) inactive: -3.42.
Turning to `Nc1ccc(/N=N/c2ccccc2)c(N)n1` [phenazopyridine hydrochloride], the TEAD-luciferase reporter activity reads like this: (compound concentration: 200 nM) inactive: -0.211; (compound concentration: 2 uM) inactive: -0.792; (compound concentration: 10 uM) inactive: 2.79.
Turning to `CC(C)(C)CC(=O)OCC(=O)[C@@]1(O)CC[C@H]2[C@@H]3CCC4=CC(=O)C=CC4(C)[C@H]3[C@@H](O)CC21C` (stereo partly drawn), the TEAD-luciferase reporter activity (compound concentration: 200 nM) was inactive: 4.46, the TEAD-luciferase reporter activity (compound concentration: 2 uM) was inactive: 0.574 and the TEAD-luciferase reporter activity (compound concentration: 10 uM) was inactive: -0.593.
On to `CCOC(=O)[C@H](CCc1ccccc1)CC1(C(=O)N[C@H]2CCc3ccccc3N(CC(=O)O)C2=O)CCCC1` [Daglutril], for which the TEAD-luciferase reporter activity was inactive: -1.75 (compound concentration: 200 nM), inactive: -0.378 (compound concentration: 2 uM) and inactive: 2.73 (compound concentration: 10 uM).
Turning to `Nc1n[n+](-c2ccc(Cl)c(Cl)c2)no1`, the TEAD-luciferase reporter activity runs as follows: (compound concentration: 200 nM) inactive: -0.539; (compound concentration: 2 uM) inactive: 0.255; (compound concentration: 10 uM) active: 5.54.
In the case of `O=C(c1ccc(Cl)cc1)n1cc(Cc2nnn[nH]2)c2ccccc21`, the TEAD-luciferase reporter activity is inactive: -1.65 (compound concentration: 200 nM), inactive: -1.49 (compound concentration: 2 uM) and inactive: 1.02 (compound concentration: 10 uM).
For `OCCN1CCN(CC/C=C2/c3ccccc3Sc3ccc(Cl)cc32)CC1` [zuclopenthixol] the same measures were inactive: -0.515, inactive: -1.03 and inactive: 0.836.
Consider `C=C(C)C1CC=C(C)CC1` [D-Limonene], for which the TEAD-luciferase reporter activity (compound concentration: 200 nM) was inactive: -0.911, the TEAD-luciferase reporter activity (compound concentration: 2 uM) is inactive: -1.67 and the TEAD-luciferase reporter activity (compound concentration: 10 uM) was inactive: -1.18.
For `NS(=O)(=O)c1cc2c(cc1Cl)CN(C1CCCCC1)C2=O` the same measures were inactive: -0.0108, inactive: 4.42 and inactive: -1.95.
Take `COCC(=O)NC1CCN(c2ccc3ncc(-c4cccc(C(F)(F)F)c4)n3n2)CC1`: the TEAD-luciferase reporter activity is, setting by setting: (compound concentration: 200 nM) inactive: -2.85; (compound concentration: 10 uM) inactive: -0.811.
Take `COc1cc(/C=C/c2ccc(O)cc2)cc(OC)c1` [Pterostilbene]: the TEAD-luciferase reporter activity reads like this: (compound concentration: 200 nM) inactive: 2.89; (compound concentration: 2 uM) inactive: 2.67; (compound concentration: 10 uM) inactive: 0.803.
In the case of `COc1ccc2c(c1)c(CC(=O)NC(C=O)C(O)C(O)C(O)CO)c(C)n2C(=O)c1ccc(Cl)cc1` (stereo not drawn), the TEAD-luciferase reporter activity (compound concentration: 200 nM) was inactive: -0.939, the TEAD-luciferase reporter activity (compound concentration: 2 uM) was inactive: 0.503 and the TEAD-luciferase reporter activity (compound concentration: 10 uM) is inactive: -1.05.
Consider `CC(OC(=O)c1ccc(Cc2c(O)c3ccccc3oc2=O)cc1)(C(F)(F)F)C(F)(F)F`, for which the TEAD-luciferase reporter activity is inactive: -1.15 (compound concentration: 200 nM), inactive: -0.172 (compound concentration: 2 uM) and inactive: -0.163 (compound concentration: 10 uM).
On to `CO[C@H]1CCC[C@H]2C1=C(C(=O)OCc1ccccc1)N1C(=O)[C@H]([C@@H](C)O)[C@@H]21`, for which the TEAD-luciferase reporter activity reads like this: (compound concentration: 200 nM) inactive: -1.97; (compound concentration: 10 uM) inactive: 0.358.
